Measured values from publication doi:10.1101/2025.07.27.666075.
Results are given in words; binding and its absence hold for the method and conditions named. Binding seen in cells or lysates may run through a third protein. Some binding calls cover weakened binding; strength is not graded here.

Amino acid sequences for entries named in this document (tags omitted).
UniProt Q15154: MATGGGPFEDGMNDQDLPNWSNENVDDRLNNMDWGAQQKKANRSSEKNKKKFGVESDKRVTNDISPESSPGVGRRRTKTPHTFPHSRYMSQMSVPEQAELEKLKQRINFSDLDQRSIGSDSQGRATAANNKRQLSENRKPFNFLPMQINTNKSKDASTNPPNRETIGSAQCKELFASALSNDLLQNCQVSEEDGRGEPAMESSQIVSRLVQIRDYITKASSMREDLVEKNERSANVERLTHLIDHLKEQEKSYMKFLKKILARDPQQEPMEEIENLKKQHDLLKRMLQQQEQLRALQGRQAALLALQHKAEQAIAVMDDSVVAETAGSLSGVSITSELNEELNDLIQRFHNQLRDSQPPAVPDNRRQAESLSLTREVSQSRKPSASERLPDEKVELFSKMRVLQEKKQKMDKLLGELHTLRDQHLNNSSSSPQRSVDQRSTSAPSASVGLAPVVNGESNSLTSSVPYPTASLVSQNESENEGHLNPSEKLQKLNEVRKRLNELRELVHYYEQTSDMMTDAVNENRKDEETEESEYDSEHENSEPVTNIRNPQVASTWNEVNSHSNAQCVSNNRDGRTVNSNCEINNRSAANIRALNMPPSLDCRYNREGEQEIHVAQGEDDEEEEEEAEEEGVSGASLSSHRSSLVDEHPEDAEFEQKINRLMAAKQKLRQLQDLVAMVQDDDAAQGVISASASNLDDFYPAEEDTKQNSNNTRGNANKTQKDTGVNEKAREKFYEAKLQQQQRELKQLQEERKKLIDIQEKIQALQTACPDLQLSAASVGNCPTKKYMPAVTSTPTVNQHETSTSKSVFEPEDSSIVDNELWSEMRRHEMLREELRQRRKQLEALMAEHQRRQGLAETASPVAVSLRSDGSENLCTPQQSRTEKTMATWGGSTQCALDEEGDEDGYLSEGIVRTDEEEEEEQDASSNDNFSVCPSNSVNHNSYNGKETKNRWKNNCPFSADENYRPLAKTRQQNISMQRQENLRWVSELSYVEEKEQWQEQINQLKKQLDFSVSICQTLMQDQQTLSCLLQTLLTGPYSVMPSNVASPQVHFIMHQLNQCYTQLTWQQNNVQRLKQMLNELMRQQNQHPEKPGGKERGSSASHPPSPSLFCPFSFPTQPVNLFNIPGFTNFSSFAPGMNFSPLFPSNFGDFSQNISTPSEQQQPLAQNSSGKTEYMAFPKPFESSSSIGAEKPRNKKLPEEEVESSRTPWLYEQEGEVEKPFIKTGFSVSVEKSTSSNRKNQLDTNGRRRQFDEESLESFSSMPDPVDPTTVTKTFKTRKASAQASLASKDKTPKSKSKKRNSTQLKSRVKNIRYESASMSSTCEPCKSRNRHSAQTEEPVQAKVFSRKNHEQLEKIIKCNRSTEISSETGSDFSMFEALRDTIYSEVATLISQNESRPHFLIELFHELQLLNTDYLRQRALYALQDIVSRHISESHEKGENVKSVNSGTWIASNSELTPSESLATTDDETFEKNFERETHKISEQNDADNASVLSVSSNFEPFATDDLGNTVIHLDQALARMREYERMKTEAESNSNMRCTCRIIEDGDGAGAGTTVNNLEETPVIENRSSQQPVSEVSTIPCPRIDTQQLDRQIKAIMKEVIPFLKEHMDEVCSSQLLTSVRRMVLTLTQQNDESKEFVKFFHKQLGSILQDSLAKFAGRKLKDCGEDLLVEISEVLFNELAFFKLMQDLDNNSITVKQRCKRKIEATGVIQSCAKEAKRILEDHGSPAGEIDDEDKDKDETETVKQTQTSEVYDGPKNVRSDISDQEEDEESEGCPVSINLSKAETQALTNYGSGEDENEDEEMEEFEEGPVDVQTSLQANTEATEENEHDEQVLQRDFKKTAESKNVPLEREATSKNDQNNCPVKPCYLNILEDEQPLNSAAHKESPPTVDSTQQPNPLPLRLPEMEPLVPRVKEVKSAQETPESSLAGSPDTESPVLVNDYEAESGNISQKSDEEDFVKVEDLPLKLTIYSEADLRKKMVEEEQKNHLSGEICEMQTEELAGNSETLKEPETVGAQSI
UniProt O15078: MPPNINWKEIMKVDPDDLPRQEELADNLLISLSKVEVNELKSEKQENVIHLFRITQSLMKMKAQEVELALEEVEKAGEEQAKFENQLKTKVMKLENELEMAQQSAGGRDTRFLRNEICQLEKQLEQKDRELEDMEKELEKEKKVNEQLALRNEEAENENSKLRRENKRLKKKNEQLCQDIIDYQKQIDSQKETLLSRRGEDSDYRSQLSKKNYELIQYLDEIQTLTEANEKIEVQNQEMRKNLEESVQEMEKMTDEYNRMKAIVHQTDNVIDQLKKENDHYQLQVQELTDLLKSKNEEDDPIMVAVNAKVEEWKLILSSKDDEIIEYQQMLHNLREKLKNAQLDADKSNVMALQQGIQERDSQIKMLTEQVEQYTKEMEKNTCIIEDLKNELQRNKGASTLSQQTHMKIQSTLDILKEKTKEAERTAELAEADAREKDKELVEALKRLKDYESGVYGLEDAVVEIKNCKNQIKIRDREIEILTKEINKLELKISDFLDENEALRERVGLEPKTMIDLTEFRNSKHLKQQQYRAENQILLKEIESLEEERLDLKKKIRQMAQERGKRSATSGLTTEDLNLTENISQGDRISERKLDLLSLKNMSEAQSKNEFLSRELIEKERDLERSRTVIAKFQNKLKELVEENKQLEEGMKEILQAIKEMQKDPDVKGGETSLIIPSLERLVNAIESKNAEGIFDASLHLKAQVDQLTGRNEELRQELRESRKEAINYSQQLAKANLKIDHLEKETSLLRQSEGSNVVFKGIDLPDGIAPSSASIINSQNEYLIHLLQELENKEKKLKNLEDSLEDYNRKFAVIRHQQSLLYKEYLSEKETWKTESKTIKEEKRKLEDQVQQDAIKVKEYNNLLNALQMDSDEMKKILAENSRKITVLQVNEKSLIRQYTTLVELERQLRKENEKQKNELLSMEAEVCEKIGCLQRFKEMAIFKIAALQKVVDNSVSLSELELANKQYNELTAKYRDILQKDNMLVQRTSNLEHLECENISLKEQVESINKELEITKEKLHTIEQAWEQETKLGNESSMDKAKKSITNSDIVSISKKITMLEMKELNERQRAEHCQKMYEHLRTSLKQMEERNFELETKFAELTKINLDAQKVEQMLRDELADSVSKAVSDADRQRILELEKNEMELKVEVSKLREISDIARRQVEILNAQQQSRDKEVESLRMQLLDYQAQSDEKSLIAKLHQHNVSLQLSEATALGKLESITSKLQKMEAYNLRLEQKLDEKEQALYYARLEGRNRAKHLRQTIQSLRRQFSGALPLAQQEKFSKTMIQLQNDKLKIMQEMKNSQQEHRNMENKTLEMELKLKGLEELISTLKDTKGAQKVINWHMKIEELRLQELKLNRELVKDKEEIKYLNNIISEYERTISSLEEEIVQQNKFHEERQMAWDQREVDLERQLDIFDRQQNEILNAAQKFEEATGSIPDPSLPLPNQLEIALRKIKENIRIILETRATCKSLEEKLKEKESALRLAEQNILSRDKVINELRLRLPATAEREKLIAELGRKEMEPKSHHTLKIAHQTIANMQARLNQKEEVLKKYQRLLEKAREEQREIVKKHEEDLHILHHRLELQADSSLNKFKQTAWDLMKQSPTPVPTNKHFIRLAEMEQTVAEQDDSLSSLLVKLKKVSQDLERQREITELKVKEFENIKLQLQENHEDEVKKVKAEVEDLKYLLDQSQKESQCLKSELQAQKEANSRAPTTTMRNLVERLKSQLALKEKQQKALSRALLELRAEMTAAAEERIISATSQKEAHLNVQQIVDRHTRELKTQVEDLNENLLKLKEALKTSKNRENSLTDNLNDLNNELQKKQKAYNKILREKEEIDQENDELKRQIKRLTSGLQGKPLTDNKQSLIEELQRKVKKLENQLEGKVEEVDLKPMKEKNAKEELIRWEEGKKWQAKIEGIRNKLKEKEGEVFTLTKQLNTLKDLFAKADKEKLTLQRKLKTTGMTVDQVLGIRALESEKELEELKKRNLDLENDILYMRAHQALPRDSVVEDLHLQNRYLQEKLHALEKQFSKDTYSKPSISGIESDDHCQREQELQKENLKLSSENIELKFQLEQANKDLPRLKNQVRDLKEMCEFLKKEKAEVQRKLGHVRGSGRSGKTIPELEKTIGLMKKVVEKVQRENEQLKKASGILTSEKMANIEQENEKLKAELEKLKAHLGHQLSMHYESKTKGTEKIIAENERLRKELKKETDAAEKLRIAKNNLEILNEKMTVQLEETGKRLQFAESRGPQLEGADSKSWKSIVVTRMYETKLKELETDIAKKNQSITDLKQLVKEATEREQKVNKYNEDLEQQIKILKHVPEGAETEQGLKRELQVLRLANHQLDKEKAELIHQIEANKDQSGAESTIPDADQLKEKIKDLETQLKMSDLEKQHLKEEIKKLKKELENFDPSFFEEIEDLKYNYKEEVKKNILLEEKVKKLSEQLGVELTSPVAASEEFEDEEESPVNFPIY

B1: CEP131 (protein, UniProt Q9UPN4 1-1083)
chain: MKGTRAIGSVPERSPAGVDLSLTGLPPPVSRRPGSAATTKPIVRSVSVVTGSEQKRKVLEATGPGGSQAINNLRRSNSTTQVSQPRSGSPRPTEPTDFLMLFEGSPSGKKRPASLSTAPSEKGATWNVLDDQPRGFTLPSNARSSSALDSPAGPRRKECTVALAPNFTANNRSNKGAVGNCVTTMVHNRYTPSERAPPLKSSNQTAPSLNNIIKAATCEGSESSGFGKLPKNVSSATHSARNNTGGSTGLPRRKEVTEEEAERFIHQVNQATVTIQRWYRHQVQRRGAGAARLEHLLQAKREEQRQRSGEGTLLDLHQQKEAARRKAREEKARQARRAAIQELQQKRALRAQKASTAERGPPENPRETRVPGMRQPAQELSPTPGGTAHQALKANNTGGGLPAAGPGDRCLPTSDSSPEPQQPPEDRTQDVLAQDAAGDNLEMMAPSRGSAKSRGPLEELLHTLQLLEKEPDVLPRPRTHHRGRYAWASEVTTEDDASSLTADNLEKFGKLSAFPEPPEDGTLLSEAKLQSIMSFLDEMEKSGQDQLDSQQEGWVPEAGPGPLELGSEVSTSVMRLKLEVEEKKQAMLLLQRALAQQRDLTARRVKETEKALSRQLQRQREHYEATIQRHLAFIDQLIEDKKVLSEKCEAVVAELKQEDQRCTERVAQAQAQHELEIKKLKELMSATEKARREKWISEKTKKIKEVTVRGLEPEIQKLIARHKQEVRRLKSLHEAELLQSDERASQRCLRQAEELREQLEREKEALGQQERERARQRFQQHLEQEQWALQQQRQRLYSEVAEERERLGQQAARQRAELEELRQQLEESSSALTRALRAEFEKGREEQERRHQMELNTLKQQLELERQAWEAGRTRKEEAWLLNREQELREEIRKGRDKEIELVIHRLEADMALAKEESEKAAESRIKRLRDKYEAELSELEQSERKLQERCSELKGQLGEAEGENLRLQGLVRQKERALEDAQAVNEQLSSERSNLAQVIRQEFEDRLAASEEETRQAKAELATLQARQQLELEEVHRRVKTALARKEEAVSSLRTQHEAAVKRADHLEELLEQHRRPTPSTK
B2: KIAA0753 (protein, UniProt Q2KHM9 1-967)
chain: MGPGQPASTCVHLAPRTQLDGRSDPKVLQTQNQLQFNRNVPTHSSNLAIRYSCPHAIRIEKLKHSYNESYHCKDADCRVGPDLGSSVSFSVISQERLSYAVHLARRDVKRRQFEKHIKEHHLRSQPQSSQKCGHTKYKIPDHRVERKESKSQAACQCSHQPSKVEISSSGAKVYLYSSHPGQSDLTVPNSPPTHDPGLQPHPRIGDHKNISEQKSLLEVQRLQKELSSCIHKIEEVTKKDRLEEALDPDEERRIRIRRQEQAARSARMLYVLQQQVKEIQEELDKLSPHKIKHTKKSWAMSKLAAAHRGAIRALQMFVTQFTDRGEHPLPARCKELGSLIRQLSLCSVKLDADPSVPDVVIDILQQIEALESLLEKKLSPKKVKKCFSEIRSRFPIGSQKALERWPSTSPKGERRPLTAKDTFPQETSRPSVAKQLLADKYQPDTELPETQRLQSELDVLDADIVLEEGPFILDQSASFKDEVLAVAKTKAGKKKPVTENVPFRKKDTLAPARQQGLRKAERGRQSQPHSKSRVQQTTVSSRLKMNRQPVKDRKAPWIPPNPTSPPASPKCAAWLKVKTSPRDATKEPLQQEDPQEESHLTGAVEHEAARLAWLDAETSKRLKELEELKAKEIDSMQKQRLDWLDAETSRRTKELNELKAEEMYRLQQLSVSATHLADKVEEAVLDRLKPLLVKAQRVNSTTEANIHLKDGSSVNTAKAQPAQEVAAVDFESNNIRQLDDFLEDCASELWAVTHAKILGSETLATVEDSKDSPDLEIMMRRMEEMEKYQESVRQRYNKIAYADPRLWMQEENNDQKISAISEKPLSPHPIRITKTVDRKDPAVNIMLERPCNGNSLDESVGTEEGSEKREAPLLSLAEDSQQKEGRAPLFVPPGMQHSIGDYCSRFEQYLRIISHEAVGSFNPWLIAESFSEELVDEALGAVAAELQDMCEDYAEAVFTSEFLEAAT

Target: FLAG-PCM1 (Pericentriolar Material-1) (human) (UniProt Q15154)
Assay: co-IP

Molecule | binding
CEP290 (from UniProt O15078 1-2479) | binds
B1 | binds
B2 | binds
